# In paper doi:10.1101/597153:
# The chains behind the UniProt entries cited, without tags or fusion partners.
# UniProt Q96EB6: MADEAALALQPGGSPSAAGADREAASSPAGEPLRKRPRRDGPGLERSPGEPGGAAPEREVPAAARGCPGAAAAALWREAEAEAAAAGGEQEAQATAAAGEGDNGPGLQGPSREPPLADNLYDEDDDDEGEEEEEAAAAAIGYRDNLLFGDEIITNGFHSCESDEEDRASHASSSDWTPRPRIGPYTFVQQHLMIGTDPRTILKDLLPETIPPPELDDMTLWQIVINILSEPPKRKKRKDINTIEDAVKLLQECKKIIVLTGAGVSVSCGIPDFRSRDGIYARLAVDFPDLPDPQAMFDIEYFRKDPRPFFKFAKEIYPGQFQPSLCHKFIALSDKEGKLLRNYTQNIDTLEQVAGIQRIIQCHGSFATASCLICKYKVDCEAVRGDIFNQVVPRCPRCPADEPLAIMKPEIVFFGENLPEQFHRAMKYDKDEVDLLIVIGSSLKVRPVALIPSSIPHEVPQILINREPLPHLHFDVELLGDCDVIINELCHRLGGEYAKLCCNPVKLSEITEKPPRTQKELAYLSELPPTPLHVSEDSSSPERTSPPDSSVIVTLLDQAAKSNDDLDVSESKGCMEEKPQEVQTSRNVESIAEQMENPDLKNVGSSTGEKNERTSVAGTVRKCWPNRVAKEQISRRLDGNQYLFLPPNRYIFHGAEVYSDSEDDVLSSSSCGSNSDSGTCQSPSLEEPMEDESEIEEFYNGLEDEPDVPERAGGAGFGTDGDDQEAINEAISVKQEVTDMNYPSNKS
# Where a chain is given by its changes, count along the chain named. These are yes or no findings as the source states them, for the method shown. In cells and extracts the contact can be indirect. Some binding calls cover weakened binding; strength is not graded here. For some of these results: Sequences can lack the tags named with a protein.
# T1: FLAG-SIRT1-WT (mouse) (UniProt Q923E4)
# T1 sequence: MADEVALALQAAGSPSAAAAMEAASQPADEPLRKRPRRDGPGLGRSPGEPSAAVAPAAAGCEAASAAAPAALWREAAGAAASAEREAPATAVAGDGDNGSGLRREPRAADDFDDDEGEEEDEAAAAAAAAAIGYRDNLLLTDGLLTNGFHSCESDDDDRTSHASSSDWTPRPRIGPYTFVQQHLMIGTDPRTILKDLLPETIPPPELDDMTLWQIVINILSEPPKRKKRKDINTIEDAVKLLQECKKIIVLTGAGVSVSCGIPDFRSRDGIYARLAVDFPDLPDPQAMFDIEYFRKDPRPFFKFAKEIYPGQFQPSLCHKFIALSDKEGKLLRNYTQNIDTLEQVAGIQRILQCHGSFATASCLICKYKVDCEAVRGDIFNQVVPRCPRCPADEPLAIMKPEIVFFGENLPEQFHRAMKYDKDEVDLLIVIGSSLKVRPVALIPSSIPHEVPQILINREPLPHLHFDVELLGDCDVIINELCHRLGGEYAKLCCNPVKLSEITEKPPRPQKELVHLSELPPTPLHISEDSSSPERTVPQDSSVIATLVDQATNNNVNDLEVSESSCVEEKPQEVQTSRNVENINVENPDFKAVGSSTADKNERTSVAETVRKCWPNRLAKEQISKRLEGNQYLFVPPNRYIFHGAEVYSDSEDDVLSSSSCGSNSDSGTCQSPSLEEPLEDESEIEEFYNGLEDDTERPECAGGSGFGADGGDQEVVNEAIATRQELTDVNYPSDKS
# T2: FLAG-SIRT1-mutE2 (mouse) (UniProt Q923E4)
# T2 sequence: T1 sequence with T160A, S161A
# B1: PPARα (protein, UniProt Q07869 1-468)
# chain: MVDTESPLCPLSPLEAGDLESPLSEEFLQEMGNIQEISQSIGEDSSGSFGFTEYQYLGSCPGSDGSVITDTLSPASSPSSVTYPVVPGSVDESPSGALNIECRICGDKASGYHYGVHACEGCKGFFRRTIRLKLVYDKCDRSCKIQKKNRNKCQYCRFHKCLSVGMSHNAIRFGRMPRSEKAKLKAEILTCEHDIEDSETADLKSLAKRIYEAYLKNFNMNKVKARVILSGKASNNPPFVIHDMETLCMAEKTLVAKLVANGIQNKEAEVRIFHCCQCTSVETVTELTEFAKAIPGFANLDLNDQVTLLKYGVYEAIFAMLSSVMNKDGMLVAYGNGFITREFLKSLRKPFCDIMEPKFDFAMKFNALELDDSDISLFVAAIICCGDRPGLLNVGHIEKMQEGIVHVLRLHLQSNHPDDIFLFPKLLQKMADLRQLVTEHAQLVQIIKKTESDAALHPLLQEIYRDMY
# B2: HA-OGT (enzyme, UniProt O15294 1-1046)
# chain: MASSVGNVADSTEPTKRMLSFQGLAELAHREYQAGDFEAAERHCMQLWRQEPDNTGVLLLLSSIHFQCRRLDRSAHFSTLAIKQNPLLAEAYSNLGNVYKERGQLQEAIEHYRHALRLKPDFIDGYINLAAALVAAGDMEGAVQAYVSALQYNPDLYCVRSDLGNLLKALGRLEEAKACYLKAIETQPNFAVAWSNLGCVFNAQGEIWLAIHHFEKAVTLDPNFLDAYINLGNVLKEARIFDRAVAAYLRALSLSPNHAVVHGNLACVYYEQGLIDLAIDTYRRAIELQPHFPDAYCNLANALKEKGSVAEAEDCYNTALRLCPTHADSLNNLANIKREQGNIEEAVRLYRKALEVFPEFAAAHSNLASVLQQQGKLQEALMHYKEAIRISPTFADAYSNMGNTLKEMQDVQGALQCYTRAIQINPAFADAHSNLASIHKDSGNIPEAIASYRTALKLKPDFPDAYCNLAHCLQIVCDWTDYDERMKKLVSIVADQLEKNRLPSVHPHHSMLYPLSHGFRKAIAERHGNLCLDKINVLHKPPYEHPKDLKLSDGRLRVGYVSSDFGNHPTSHLMQSIPGMHNPDKFEVFCYALSPDDGTNFRVKVMAEANHFIDLSQIPCNGKAADRIHQDGIHILVNMNGYTKGARNELFALRPAPIQAMWLGYPGTSGALFMDYIITDQETSPAEVAEQYSEKLAYMPHTFFIGDHANMFPHLKKKAVIDFKSNGHIYDNRIVLNGIDLKAFLDSLPDVKIVKMKCPDGGDNADSSNTALNMPVIPMNTIAEAVIEMINRGQIQITINGFSISNGLATTQINNKAATGEEVPRTIIVTTRSQYGLPEDAIVYCNFNQLYKIDPSTLQMWANILKRVPNSVLWLLRFPAVGEPNIQQYAQNMGLPQNRIIFSPVAPKEEHVRRGQLADVCLDTPLCNGHTTGMDVLWAGTPMVTMPGETLASRVAASQLTCLGCLELIAKNRQEYEDIAVKLGTDLEYLKKVRGKVWKQRISSPLFNTKQYTMELERLYLQMWEHYAAGNKPDHMIKPVEVTESA
# Key:
# Assay in all cases: co-IP
# FLAG-SIRT1-WT (mouse) = target: T1, FLAG-SIRT1-WT (mouse)
# FLAG-SIRT1-mutE2 (mouse) = target: T2, FLAG-SIRT1-mutE2 (mouse)
# [1] = target: endogenous SIRT1 (human (endogenous in HEK293T)) (UniProt Q96EB6)
Binder,binding (FLAG-SIRT1-WT (mouse)),binding (FLAG-SIRT1-mutE2 (mouse)),binding [1]
B1,binds,binds,binds
B2,binds,,
